According to article PMC4538849:
No constants are given. Whether binding was seen depends on the method and setting. For some assays here: In cells and extracts the contact can be indirect. Some binding calls cover weakened binding; strength is not graded here. For some assays here: Tags and fused reporters may be left off the sequences shown. Values belong to the binder of their own block, whether it stands above or below them.

What was measured:
[1] = molecular target: wild-type (wt) Miro1 (human) (UniProt Q8IXI2); assay: co-IP; transiently transfected Cenp-F fragment and Miro1; the text calls it a pull-down; methods not told
[2] = molecular target: T1, LexA-fused C-terminal fragment of Cenp-F (amino acids 2977–3020) (UniProt P49454); assay: two-hybrid; LexA-Cenp-F bait (pEG202), Miro prey (pJG4-5), yeast EGY48 with lacZ reporter pSH18-34, galactose medium, X-gal overlay
T1 sequence: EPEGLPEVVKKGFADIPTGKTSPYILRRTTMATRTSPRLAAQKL

- binding [1]: binds
B1: Cenp-F fragment (amino acids 2375–3144) (domain or fragment, UniProt P49454 2375-3114)
chain: GMTQSLRGLELDVVTIRSEKENLTNELQKEQERISELEIINSSFENILQEKEQEKVQMKEKSSTAMEMLQTQLKELNERVAALHNDQEACKAKEQNLSSQVECLELEKAQLLQGLDEAKNNYIVLQSSVNGLIQEVEDGKQKLEKKDEEISRLKNQIQDQEQLVSKLSQVEGEHQLWKEQNLELRNLTVELEQKIQVLQSKNASLQDTLEVLQSSYKNLENELELTKMDKMSFVEKVNKMTAKETELQREMHEMAQKTAELQEELSGEKNRLAGELQLLLEEIKSSKDQLKELTLENSELKKSLDCMHKDQVEKEGKVREEIAEYQLRLHEAEKKHQALLLDTNKQYEVEIQTYREKLTSKEECLSSQKLEIDLLKSSKEELNNSLKATTQILEELKKTKMDNLKYVNQLKKENERAQGKMKLLIKSCKQLEEEKEILQKELSQLQAAQEKQKTGTVMDTKVDELTTEIKELKETLEEKTKEADEYLDKYCSLLISHEKLEKAKEMLETQVAHLCSQQSKQDSRGSPLLGPVVPGPSPIPSVTEKRLSSGQNKASGKRQRSSGIWENGRGPTPATPESFSKKSKKAVMSGIHPAEDTEGTEFEPEGLPEVVKKGFADIPTGKTSPYILRRTTMATRTSPRLAAQKLALSPLSLGKENLAESSKPTAGGSRSQKVKVAQRSPVDSGTILREPTTKSVPVNNLPERSPTDSPREGLRVKRGRLVPSPKAGLESNGSENCKVQ

- binding [2]: binds
B2: Miro1 (without transmembrane domain, amino acids 1–594) (domain or fragment, UniProt Q8IXI2 1-594)
chain: MKKDVRILLVGEPRVGKTSLIMSLVSEEFPEEVPPRAEEITIPADVTPERVPTHIVDYSEAEQSDEQLHQEISQANVICIVYAVNNKHSIDKVTSRWIPLINERTDKDSRLPLILVGNKSDLVEYSSMETILPIMNQYTEIETCVECSAKNLKNISELFYYAQKAVLHPTGPLYCPEEKEMKPACIKALTRIFKISDQDNDGTLNDAELNFFQRICFNTPLAPQALEDVKNVVRKHISDGVADSGLTLKGFLFLHTLFIQRGRHETTWTVLRRFGYDDDLDLTPEYLFPLLKIPPDCTTELNHHAYLFLQSTFDKHDLDRDCALSPDELKDLFKVFPYIPWGPDVNNTVCTNERGWITYQGFLSQWTLTTYLDVQRCLEYLGYLGYSILTEQESQASAVTVTRDKKIDLQKKQTQRNVFRCNVIGVKNCGKSGVLQALLGRNLMRQKKIREDHKSYYAINTVYVYGQEKYLLLHDISESEFLTEAEIICDVVCLVYDVSNPKSFEYCARIFKQHFMDSRIPCLIVAAKSDLHEVKQEYSISPTDFCRKHKMPPPQAFTCNTADAPSKDIFVKLTTMAMYPHVTQADLKSSTFWL
